# Results are given in words; binding and its absence hold for the method and conditions named. Binding seen in cells or lysates may run through a third protein. These calls come from enrichment with a bait or labelling near it, and not all partners need be listed.
# By UniProt entry, the sequences of proteins in these tests, tags left out. Residues count along the entry.
# UniProt P0DTC8, residues 16-121: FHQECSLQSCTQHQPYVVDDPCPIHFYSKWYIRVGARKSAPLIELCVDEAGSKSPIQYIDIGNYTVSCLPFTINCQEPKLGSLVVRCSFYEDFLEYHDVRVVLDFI
# UniProt P01024, residues 23-1663: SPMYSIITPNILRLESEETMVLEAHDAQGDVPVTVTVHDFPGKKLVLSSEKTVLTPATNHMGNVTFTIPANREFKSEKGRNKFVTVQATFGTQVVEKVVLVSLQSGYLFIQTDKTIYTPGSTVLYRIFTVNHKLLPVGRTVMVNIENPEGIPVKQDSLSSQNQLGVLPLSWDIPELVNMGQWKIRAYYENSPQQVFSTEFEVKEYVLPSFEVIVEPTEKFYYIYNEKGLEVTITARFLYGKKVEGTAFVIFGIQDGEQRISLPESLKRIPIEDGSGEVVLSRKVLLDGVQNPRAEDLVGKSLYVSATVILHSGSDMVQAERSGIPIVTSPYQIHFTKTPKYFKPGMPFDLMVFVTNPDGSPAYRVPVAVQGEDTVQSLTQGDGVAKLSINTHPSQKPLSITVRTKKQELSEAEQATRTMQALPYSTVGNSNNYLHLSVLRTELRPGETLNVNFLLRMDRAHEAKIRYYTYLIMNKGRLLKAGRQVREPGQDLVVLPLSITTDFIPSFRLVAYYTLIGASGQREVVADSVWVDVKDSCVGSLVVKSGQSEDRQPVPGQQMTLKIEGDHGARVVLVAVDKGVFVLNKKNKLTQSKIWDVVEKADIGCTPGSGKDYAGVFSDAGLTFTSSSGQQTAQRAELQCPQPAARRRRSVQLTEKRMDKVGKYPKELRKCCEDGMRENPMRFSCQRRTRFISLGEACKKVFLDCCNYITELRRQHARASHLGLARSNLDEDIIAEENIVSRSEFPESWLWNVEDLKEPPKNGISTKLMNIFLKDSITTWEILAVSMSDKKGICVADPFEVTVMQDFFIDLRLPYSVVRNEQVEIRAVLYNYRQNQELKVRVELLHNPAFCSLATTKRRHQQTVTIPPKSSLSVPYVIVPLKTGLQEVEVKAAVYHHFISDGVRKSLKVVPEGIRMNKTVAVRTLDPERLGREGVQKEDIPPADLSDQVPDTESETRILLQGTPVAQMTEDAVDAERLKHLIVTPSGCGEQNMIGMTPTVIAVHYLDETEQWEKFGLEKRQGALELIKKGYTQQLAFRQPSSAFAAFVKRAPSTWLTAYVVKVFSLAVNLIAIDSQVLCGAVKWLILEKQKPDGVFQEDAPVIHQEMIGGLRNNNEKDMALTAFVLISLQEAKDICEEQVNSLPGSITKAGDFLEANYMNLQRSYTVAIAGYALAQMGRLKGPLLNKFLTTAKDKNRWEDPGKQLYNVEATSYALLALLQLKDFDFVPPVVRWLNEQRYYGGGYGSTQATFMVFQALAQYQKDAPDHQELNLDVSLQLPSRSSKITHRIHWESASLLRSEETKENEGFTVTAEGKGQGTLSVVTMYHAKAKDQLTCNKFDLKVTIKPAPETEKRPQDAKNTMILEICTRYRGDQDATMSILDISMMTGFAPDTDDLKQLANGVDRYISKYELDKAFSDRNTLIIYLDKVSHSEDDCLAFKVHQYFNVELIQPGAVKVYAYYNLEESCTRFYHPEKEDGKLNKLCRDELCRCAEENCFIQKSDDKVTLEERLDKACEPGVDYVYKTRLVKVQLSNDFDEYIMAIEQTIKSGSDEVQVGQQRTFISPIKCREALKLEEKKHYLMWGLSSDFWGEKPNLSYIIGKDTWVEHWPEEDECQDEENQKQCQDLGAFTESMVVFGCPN
# Target: SARS-CoV-2 ORF8 (bait of the immunoprecipitation coupled with mass spectrometry) (SARS-CoV-2) (UniProt P0DTC8)
# Test: affinity purification with mass spectrometry
substance,measurement,value
complement C3 (from UniProt P01024 23-1663),binding,binds

# Reference: publication PMC11574245
